Drawing on patent US20040259157A1, this text covers binding for two molecules.

Positions count from the first letter of the chain named. Numbers in names are those of the source. These are yes or no findings as the source states them, for the method shown. In cells and extracts the contact can be indirect. A result given as binding can be weak or reduced; the word gives no strength. Sequences can lack the tags named with a protein.

In assay [1] the target is endogenous LMAN1 (COS-1 cells) (Chlorocebus aethiops (Green monkey) (Cercopithecus aethiops)). The assay is described as follows: co-immunoprecipitation.
Assay [2] shares this target. The assay is described as follows: co-immunoprecipitation, COS-1 cells transfected with MCFD2-myc (FIG. 6A).
For assay [3] the target is unchanged. The assay is described as follows: co-immunoprecipitation with anti-myc and, in reverse, with anti-LMAN1; [35S]-labeled COS-1 extracts (FIG. 6A, lanes 3, 4).
Assay [4] shares this target. The assay is described as follows: co-immunoprecipitation, transfected COS-1 cells (FIG. 6A, lanes 7, 8).

B1: wild-type MCFD2-myc (protein, not shown: small tags and cut ends)
chain: EEPAASFSQPGSMGLDKNTVHDQEHIMEHLEGVINKPEAEMSPQELQLHYFKMHDYDGNNLLDGLELSTAITHVHKEEGSEQAPLMSEDELINIIDGVLRDDDKNNDGYIDYAEFAKSLQ
For the molecule B1, the binding result in assay [1], in assay [2] and in assay [3] was “binds” in each case.

B2: MCFD2 (I136V)-myc (protein, not shown: small tags and cut ends)
chain: B1 chain with I110V
Consider B2, for which, in assay [4], the binding result is “binds”.
